One experiment relates to MRSA. The experiment is described as follows: MIC by tube dilution and Kull synergy index against MRSA. Format: cell-based. The settings on record: Staphylococcus aureus. The source says:
(§1) MIC testing and synergistic effects studies. The microorganisms were clinically obtained isolates. Staphylococcus aureus is a clinically significant member of the gram-positive group of bacterial pathogens. It gives rise to serious infections, and can produce bacteremia, endocarditis, and meningitis. Methicillin-resistant strains of Staphylococcus aureus (MRSA) were chosen for evaluation because they are a significant medical problem, particularly in view of the fact that methicillin is a drug of choice for treatment of S. aureus infection in the common penicillin-resistant strains. Escherichia coli was also chosen for evaluation. E. coli is a gram-negative pathogenic enterobacteriaceae, and is commonly used as a model organism for bacteria in general. The E. coli strain O157:H7, one of hundreds of strains of the bacterium E. coli, causes illness in humans.
All individual components are present in the combination at a starting point of 10,000 μg/mL, or 1% unless otherwise noted in the parenthesis in the attached tables. Combinations are serially diluted to obtain the MIC. […]
Abbreviations in Tables 2 and 3 are as follows. MIC is the Minimum Inhibitory Concentration. MRSA is Methicillin-resistant Staphylococcus Aureus. E. coli is Escherichia coli. […] Pluronic® F127 is Pluronic® F127 microemulsion.
The Minimum Inhibitory Concentrations (MIC) were determined using tube dilution sensitivities. […] The cultures were incubated overnight at 37° C. and MICs were recorded. The MIC was determined as the lowest concentration of a combination which prevented visible microorganism growth (e.g., turbidity). A culture growth control without compound and several culture sensitive reference agents were used as positive controls. The assays were performed in triplicate. […]

The next experiment relates to E. coli. In words: microbe, parasite or virus in culture. The settings on record: Escherichia coli, read-out: 2-MIC-. Format: cell-based.
Excerpt: as §1
All individual components are present in the combination at a starting point of 10,000 μg/mL, or 1% unless otherwise noted in the parenthesis in the attached tables. Combinations are serially diluted to obtain the MIC. […]
The Minimum Inhibitory Concentrations (MIC) were determined using tube dilution sensitivities. […] The cultures were incubated overnight at 37° C. and MICs were recorded. The MIC was determined as the lowest concentration of a combination which prevented visible microorganism growth (e.g., turbidity). […]

Like-named read-outs stand apart in the source and are kept apart here.

For `CCCCCCCCCCCCCCCC[n+]1ccccc1` [CPC, cetylpyridinium chloride], the MIC with MRSA (read-out: 1-MIC-) is 3.15 µg/mL; in the experiment on MRSA (read-out: 2-MIC-) it was 3.15 µg/mL; with MRSA (read-out: 2-MIC-MRSA) it was 3.15 µg/mL; with E. coli it was 3 µg/mL.

(Values after patent US20120121723A1, “Antimicrobial Compositions” (priority 2005, published 2012).)
